This list was built around the results that the source calls inconclusive (neither active nor inactive); the mix of calls is not that of the screen. Where the call is inconclusive, the potency comes from a doubtful curve fit. A note “side channel” means that the fit belongs to a control or component signal, not to the main read-out. The source made the active and inactive calls. Calls follow the shape of the dose curve; as a rule, active = well fitted inhibition curve with a large enough effect in the polarisation, with a control signal flat (not every such curve was filed as active); inconclusive = small, poorly fitted or top-dose-only effect, or effect the other way, or a change in a side signal; inactive = no such curve, though single readings can be large or run the other way; the % refers to the polarisation.
What follows are compounds tested against Histone-lysine N-methyltransferase 2A (Homo sapiens) (UniProt Q03164) (assay: Confirmation of Inhibitors Targeting the Menin-MLL Interaction in MLL Related Leukemias: Competition With Fluorescein Labeled MLL-derived Peptide). Settings: Fluorescence polarization, fluorescein-MLL peptide displacement from menin.
Potency is read from the fitted curve at half-maximal effect.

Protein sequences, listed by entry. Tags and fused reporters are not part of them.
UniProt Q03164, whole entry, looked up: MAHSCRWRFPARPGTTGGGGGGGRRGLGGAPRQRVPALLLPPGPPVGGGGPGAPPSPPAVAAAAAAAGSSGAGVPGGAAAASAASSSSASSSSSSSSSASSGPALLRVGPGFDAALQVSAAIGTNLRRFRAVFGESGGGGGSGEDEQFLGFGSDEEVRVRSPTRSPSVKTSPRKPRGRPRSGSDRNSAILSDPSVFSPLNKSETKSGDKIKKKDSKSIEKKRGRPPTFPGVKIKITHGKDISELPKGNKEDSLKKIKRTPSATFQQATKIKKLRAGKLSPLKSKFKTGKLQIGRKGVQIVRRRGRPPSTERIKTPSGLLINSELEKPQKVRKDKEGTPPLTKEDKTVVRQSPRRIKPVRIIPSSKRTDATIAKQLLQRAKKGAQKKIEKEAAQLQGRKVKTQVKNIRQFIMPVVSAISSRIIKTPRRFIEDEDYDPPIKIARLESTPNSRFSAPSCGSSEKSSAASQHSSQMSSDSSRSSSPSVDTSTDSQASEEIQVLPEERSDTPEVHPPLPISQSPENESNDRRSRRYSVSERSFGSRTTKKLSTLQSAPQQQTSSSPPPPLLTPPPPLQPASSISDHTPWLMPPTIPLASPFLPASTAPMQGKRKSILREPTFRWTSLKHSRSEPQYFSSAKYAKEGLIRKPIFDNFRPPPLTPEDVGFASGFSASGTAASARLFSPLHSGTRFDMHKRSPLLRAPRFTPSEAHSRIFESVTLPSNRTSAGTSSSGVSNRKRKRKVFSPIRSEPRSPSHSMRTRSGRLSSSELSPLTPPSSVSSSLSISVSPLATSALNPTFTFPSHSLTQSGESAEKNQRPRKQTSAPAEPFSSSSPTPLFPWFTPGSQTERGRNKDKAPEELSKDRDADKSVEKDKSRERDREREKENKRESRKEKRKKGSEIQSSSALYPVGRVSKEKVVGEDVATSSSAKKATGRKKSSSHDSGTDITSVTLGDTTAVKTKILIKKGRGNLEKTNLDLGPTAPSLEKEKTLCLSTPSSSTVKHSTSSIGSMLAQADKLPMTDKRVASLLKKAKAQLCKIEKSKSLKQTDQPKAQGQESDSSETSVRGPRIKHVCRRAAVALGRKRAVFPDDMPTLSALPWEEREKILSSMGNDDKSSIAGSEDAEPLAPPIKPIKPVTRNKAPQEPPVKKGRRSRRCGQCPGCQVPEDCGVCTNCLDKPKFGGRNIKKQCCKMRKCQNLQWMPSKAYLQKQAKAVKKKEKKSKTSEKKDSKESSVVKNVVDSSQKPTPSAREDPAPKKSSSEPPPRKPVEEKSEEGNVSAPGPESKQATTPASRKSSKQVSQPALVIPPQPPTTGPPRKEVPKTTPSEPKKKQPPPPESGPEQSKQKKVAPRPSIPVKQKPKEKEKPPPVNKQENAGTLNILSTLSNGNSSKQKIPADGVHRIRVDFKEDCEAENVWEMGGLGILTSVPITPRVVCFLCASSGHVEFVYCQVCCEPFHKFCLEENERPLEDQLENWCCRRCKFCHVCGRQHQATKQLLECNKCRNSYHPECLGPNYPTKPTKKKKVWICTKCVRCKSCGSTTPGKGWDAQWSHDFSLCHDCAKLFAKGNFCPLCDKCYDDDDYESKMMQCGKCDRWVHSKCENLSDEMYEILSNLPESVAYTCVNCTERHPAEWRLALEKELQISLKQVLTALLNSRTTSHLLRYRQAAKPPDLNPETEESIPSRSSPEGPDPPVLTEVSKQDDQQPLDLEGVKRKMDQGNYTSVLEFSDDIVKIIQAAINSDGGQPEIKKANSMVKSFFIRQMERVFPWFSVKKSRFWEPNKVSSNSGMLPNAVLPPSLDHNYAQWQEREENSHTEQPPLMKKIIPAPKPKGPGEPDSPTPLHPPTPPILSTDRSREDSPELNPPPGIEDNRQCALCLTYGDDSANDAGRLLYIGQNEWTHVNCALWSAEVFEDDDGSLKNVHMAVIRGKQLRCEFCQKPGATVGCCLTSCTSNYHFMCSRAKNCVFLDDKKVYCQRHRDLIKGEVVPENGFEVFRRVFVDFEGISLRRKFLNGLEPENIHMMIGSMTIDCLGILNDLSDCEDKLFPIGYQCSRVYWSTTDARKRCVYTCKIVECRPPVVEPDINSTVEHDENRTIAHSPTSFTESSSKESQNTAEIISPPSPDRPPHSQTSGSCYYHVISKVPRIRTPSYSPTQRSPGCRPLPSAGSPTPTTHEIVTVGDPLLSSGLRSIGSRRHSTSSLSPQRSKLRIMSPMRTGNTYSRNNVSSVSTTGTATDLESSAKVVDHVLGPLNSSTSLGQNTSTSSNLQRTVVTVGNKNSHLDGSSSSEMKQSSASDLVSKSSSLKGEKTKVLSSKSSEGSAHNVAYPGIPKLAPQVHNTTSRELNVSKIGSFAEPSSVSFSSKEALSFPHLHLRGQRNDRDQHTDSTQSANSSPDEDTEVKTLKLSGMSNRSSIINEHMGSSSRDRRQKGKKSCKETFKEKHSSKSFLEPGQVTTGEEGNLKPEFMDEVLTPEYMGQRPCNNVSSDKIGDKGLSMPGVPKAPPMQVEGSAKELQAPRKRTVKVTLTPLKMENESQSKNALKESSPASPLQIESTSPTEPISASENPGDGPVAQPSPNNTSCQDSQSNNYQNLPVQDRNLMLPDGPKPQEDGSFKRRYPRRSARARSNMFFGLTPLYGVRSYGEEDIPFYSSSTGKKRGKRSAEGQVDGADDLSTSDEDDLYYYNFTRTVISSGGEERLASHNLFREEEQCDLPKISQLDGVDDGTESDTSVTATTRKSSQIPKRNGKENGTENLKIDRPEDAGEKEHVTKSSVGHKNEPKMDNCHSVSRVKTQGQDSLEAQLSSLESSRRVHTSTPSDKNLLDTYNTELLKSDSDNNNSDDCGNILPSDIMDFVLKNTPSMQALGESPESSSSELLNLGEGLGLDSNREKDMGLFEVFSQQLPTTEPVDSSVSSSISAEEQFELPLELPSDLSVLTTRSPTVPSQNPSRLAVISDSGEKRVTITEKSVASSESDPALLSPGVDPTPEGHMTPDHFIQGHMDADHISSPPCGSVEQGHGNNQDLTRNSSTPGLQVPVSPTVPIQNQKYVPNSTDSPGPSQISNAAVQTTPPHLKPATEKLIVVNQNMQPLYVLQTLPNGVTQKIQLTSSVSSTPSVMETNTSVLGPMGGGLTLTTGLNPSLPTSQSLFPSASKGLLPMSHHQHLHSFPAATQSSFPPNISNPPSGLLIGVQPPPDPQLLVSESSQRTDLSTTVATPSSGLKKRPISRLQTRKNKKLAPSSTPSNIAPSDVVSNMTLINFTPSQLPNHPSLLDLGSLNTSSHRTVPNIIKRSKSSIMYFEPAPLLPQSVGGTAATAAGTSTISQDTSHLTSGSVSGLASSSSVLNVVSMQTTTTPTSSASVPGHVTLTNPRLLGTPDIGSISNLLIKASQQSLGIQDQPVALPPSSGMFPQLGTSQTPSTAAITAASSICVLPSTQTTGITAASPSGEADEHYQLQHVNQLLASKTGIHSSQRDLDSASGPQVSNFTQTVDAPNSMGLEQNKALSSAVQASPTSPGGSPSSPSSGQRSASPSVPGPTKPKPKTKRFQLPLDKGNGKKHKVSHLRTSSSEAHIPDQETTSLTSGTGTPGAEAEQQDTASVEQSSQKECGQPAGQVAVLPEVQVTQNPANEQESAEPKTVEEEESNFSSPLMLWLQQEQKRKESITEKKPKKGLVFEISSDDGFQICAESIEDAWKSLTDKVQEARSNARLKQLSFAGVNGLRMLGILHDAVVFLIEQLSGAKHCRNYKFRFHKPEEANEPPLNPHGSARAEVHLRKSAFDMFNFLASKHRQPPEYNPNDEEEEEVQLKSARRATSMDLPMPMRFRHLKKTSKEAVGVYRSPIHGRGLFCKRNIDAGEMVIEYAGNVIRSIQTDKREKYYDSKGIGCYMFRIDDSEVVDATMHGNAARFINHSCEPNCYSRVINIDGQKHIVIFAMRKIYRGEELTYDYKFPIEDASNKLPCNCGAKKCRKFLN

Row | SMILES | Potency
1 | c1cc2cc(c1)C[n+]1ccc(c3ccccc31)NCc1ccc(cc1)CNc1cc[n+](c3ccccc13)C2 | active: 126 µM
2 | CC[n+]1c(-c2ccccc2)c2cc(N)ccc2c2ccc(N)cc21 | inconclusive: 22.4 µM [fluorescent, side channel, full curve]
3 | O=C1NC(=O)c2c1c1c3ccccc3n3c1c1c2c2ccccc2n1C1CCC3O1 | inconclusive: 7.94 µM [fluorescent, side channel, full curve]
4 | COc1cc(-c2ccc(-[n+]3nc(-c4ccccc4)nn3-c3ccc([N+](=O)[O-])cc3)c(OC)c2)ccc1-[n+]1nc(-c2ccccc2)nn1-c1ccc([N+](=O)[O-])cc1 | inconclusive: 31.7 µM [quencher, full curve]

From PubChem BioAssay AID2783 (National Center for Advancing Translational Sciences (NCATS), 2010)
